# Data from article PMC7819943, “Rice protein-binding microarrays: a tool to detect cis-acting elements near promoter regions in rice”.
# The other results are listed elsewhere or left out.
# Target: T1, OsSMF1 (Oryza sativa, UniProt Q6ZLB0 1-436)
# T1 sequence: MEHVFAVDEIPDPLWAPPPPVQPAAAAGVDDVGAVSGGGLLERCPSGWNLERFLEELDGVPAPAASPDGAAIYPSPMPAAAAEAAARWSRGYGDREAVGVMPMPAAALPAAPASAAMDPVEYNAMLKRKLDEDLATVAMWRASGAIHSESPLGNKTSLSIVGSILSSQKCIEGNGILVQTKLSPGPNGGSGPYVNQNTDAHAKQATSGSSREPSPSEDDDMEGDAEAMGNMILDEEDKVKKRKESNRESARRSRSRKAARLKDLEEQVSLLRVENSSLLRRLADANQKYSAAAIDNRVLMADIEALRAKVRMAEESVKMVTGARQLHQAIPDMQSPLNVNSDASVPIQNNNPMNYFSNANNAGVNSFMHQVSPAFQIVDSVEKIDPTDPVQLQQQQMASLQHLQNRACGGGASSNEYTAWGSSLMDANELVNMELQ
# Assay: protein-binding microarray (RPBM); PBS, 2% BSA, 51.3 ng/ul salmon testes DNA, 50 uM zinc acetate, 200 nM TF, 25 C, 1 h; high values mean tight binding
# Settings: protein: recombinant; tags: N-terminal polyhistidine and DsRed monomer fusion (pET32a); chain copies: 2; label: CyDye5-dUTP incorporated in the synthesized complementary strand; 3' TTTTT single-stranded linker to array surface; dsDNA, one strand shown
# Method in brief: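 Binding signal here means per-feature fluorescence intensity in arbitrary units. The values were read on an Axon 4000B scanner after a custom Agilent array, double-stranded by primer extension with Cy5-dUTP, was incubated with 200 nM protein at 25 °C for 1 h in PBS with 2% BSA, salmon testes DNA and 50 µM zinc acetate, then washed. The proteins were transcription factors with an N-terminal polyhistidine tag and DsRed, expressed in E. coli BL21-CodonPlus and purified on Ni–NTA.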
row,Sequence,binding signal
1,TGTAGGCTTCGGCTTCGTAGGCTGTGGTAGATGTGTTGGCCGGAGTCACCTAGTGCAG,3200 fluorescence intensity (a.u.)
2,TTTCACTCGTAGACTTTTCTTGTTTCTGAATGATTTTGAGCGGAGTCACCTAGTGCAG,3530 fluorescence intensity (a.u.)
3,GAAGGCGTGGAGGAGGAGGAGGAGGAGGGGTCCCAGTCGGCGGAGTCACCTAGTGCAG,4480 fluorescence intensity (a.u.)
4,GTACAATGCTTCACCATCAGCCCTTTGTCCTGCAGTACGTCGGAGTCACCTAGTGCAG,3700 fluorescence intensity (a.u.)
5,CCGAGGCAACGTGGAGCGCAGCCAACGCGATTAGGTGGCACGGAGTCACCTAGTGCAG,3300 fluorescence intensity (a.u.)
6,ATCAAACAAACCGTGATCGGTAATACATAGTCGGTTGAACCGGAGTCACCTAGTGCAG,10500 fluorescence intensity (a.u.)
7,AGATACATTGTTTCCTGCATGATCAATGACTCAAATCTCACGGAGTCACCTAGTGCAG,3740 fluorescence intensity (a.u.)
8,CGCGCGTGCGGTTCTTGTGTCCGAGGGTGGTGGTGTGTGGCGGAGTCACCTAGTGCAG,3360 fluorescence intensity (a.u.)
9,GGAATCATAGGATGGGCGGAGGACTCCTGATACTGGAGGCCGGAGTCACCTAGTGCAG,3650 fluorescence intensity (a.u.)
10,TTGTACGGCGGTGCCGGATTGGGGTGTGACAGCACTTTACCGGAGTCACCTAGTGCAG,8000 fluorescence intensity (a.u.)
11,CGAGCGTGACGACGTCAGCGTCCTCGGAACGCAAGGGCACCGGAGTCACCTAGTGCAG,8220 fluorescence intensity (a.u.)
12,AGCGGGCGGTAGTACTATTCATCTAAGATAAATCCTAGATCGGAGTCACCTAGTGCAG,3140 fluorescence intensity (a.u.)
13,GCGATCTGCCAACGCAGCACGCATAAAACCGACCGCCGCACGGAGTCACCTAGTGCAG,3600 fluorescence intensity (a.u.)
14,AATCCACGCACGCACAAGCGCCTCCGCCTCCTCACCTCCTCGGAGTCACCTAGTGCAG,5050 fluorescence intensity (a.u.)
15,AACTCAATCGTCCTTGCGGCCAGCTAAGCTACCAAAAGCCCGGAGTCACCTAGTGCAG,4760 fluorescence intensity (a.u.)
16,CAGTGAGATCCATCAAAAGCAAACACATCAGAAGCAGGATCGGAGTCACCTAGTGCAG,3410 fluorescence intensity (a.u.)
17,AACATCACTATACATACTTAAATTTAATGTTAGTTATCTCCGGAGTCACCTAGTGCAG,28800 fluorescence intensity (a.u.)
18,TGGGCATGGGCAACCATCCTTACCCGTCATGTAGTAATGGCGGAGTCACCTAGTGCAG,4340 fluorescence intensity (a.u.)
19,TTTTCCGGCCACGATGTCACGACTGCGCCATCACCATCCACGGAGTCACCTAGTGCAG,4230 fluorescence intensity (a.u.)
20,TTGTGTGCATTTCGGCATTTGGCTACAAGATTCTTGCAGTCGGAGTCACCTAGTGCAG,39600 fluorescence intensity (a.u.)
21,CGCCACGCCGCCGATTTATACCCACCTCGTCATGCGCCTCCGGAGTCACCTAGTGCAG,4840 fluorescence intensity (a.u.)

row,Sequence,binding signal
1,AAAGATTTGTCTCGCAATTTACACGCAATCTGTGTAATTACGGAGTCACCTAGTGCAG,3230 fluorescence intensity (a.u.)
2,ACCACATCACAGCAGTGAGGTGGTTGTTGGCGGAGGAGGGCGGAGTCACCTAGTGCAG,4690 fluorescence intensity (a.u.)
3,CACTGGACGCGTCACATTCACAACAGCATACTATAGTCAGCGGAGTCACCTAGTGCAG,7130 fluorescence intensity (a.u.)
4,TGCCCTGTTACGGTTGACAGCTAATTACCTTGATTCGTTTCGGAGTCACCTAGTGCAG,9620 fluorescence intensity (a.u.)
5,ACCTCCATGTGTCCGCCAGGTCATCATCATCGCCTCGTAGCGGAGTCACCTAGTGCAG,15900 fluorescence intensity (a.u.)
6,TATTGTCAGTGGCTTGCTTAAACAACATCAACAGTTCTTTCGGAGTCACCTAGTGCAG,31300 fluorescence intensity (a.u.)
7,CATCATCGACAGGTTTCTGTTCCTCAGATCCTTACACATTCGGAGTCACCTAGTGCAG,13800 fluorescence intensity (a.u.)
8,AGCCGCGCAAATTATACCGATCGCCATGTCAACAGACGACCGGAGTCACCTAGTGCAG,28900 fluorescence intensity (a.u.)
9,ATAAAATTTGGTAAGGCCTATTTAGGCCACAAACCAAACCCGGAGTCACCTAGTGCAG,3360 fluorescence intensity (a.u.)
10,AAACGTCCTTGATATATTGAAATTTGCTGATGCAACACTTCGGAGTCACCTAGTGCAG,5210 fluorescence intensity (a.u.)
11,AGCATTCATATCACATCGGTTTTCGTACTTTTAGCCGGATCGGAGTCACCTAGTGCAG,3160 fluorescence intensity (a.u.)
12,ATAAAATGAACGTAAGCTGACGCTGCTTTCGATTGGCTTGCGGAGTCACCTAGTGCAG,3900 fluorescence intensity (a.u.)
13,ATGCTGATGCGGTTGTGGTGCTGGTAGTTGCCTTGCGCGTCGGAGTCACCTAGTGCAG,3390 fluorescence intensity (a.u.)
14,ATAGTGTGCTGCCATTGGATGGCCACGTTGTCCATGAACTCGGAGTCACCTAGTGCAG,4940 fluorescence intensity (a.u.)
15,GGAGCACGACGCACCCAGCGAGCCAGCCATCACGTAAGCTCGGAGTCACCTAGTGCAG,4070 fluorescence intensity (a.u.)
16,TGTCATCTCCCTTGGCGCTCAACGTGGCGCCGAATCAACCCGGAGTCACCTAGTGCAG,6090 fluorescence intensity (a.u.)
17,ACCACCATTCGTGCTGCCGCTTGCGTGTTGTTATTACTCCCGGAGTCACCTAGTGCAG,4610 fluorescence intensity (a.u.)
18,GAAGCCTGTGCTTTCTAGACCTCAACACGAGTTTTACCTGCGGAGTCACCTAGTGCAG,32900 fluorescence intensity (a.u.)
19,TTGTTTCAACTGTAGTGCAGCCAATCCAAACAGTACTATGCGGAGTCACCTAGTGCAG,20200 fluorescence intensity (a.u.)
20,ACCGCCTCTCCACTCTACCACACCGACACGCACACCCAGCCGGAGTCACCTAGTGCAG,4270 fluorescence intensity (a.u.)
21,TAATCCTCTGTTTTACACGTGTATTTCTATCACATTCCTACGGAGTCACCTAGTGCAG,17300 fluorescence intensity (a.u.)

# 2 entries from above, tab-delimited.
row	Sequence	binding signal
14	AATCCACGCACGCACAAGCGCCTCCGCCTCCTCACCTCCTCGGAGTCACCTAGTGCAG	5050 fluorescence intensity (a.u.)
15	AACTCAATCGTCCTTGCGGCCAGCTAAGCTACCAAAAGCCCGGAGTCACCTAGTGCAG	4760 fluorescence intensity (a.u.)
